# Measurements reported in article PMC9262599.
# Amino acid sequences for entries named in this document (tags omitted).
# UniProt Q5I7M6, entry or part of it: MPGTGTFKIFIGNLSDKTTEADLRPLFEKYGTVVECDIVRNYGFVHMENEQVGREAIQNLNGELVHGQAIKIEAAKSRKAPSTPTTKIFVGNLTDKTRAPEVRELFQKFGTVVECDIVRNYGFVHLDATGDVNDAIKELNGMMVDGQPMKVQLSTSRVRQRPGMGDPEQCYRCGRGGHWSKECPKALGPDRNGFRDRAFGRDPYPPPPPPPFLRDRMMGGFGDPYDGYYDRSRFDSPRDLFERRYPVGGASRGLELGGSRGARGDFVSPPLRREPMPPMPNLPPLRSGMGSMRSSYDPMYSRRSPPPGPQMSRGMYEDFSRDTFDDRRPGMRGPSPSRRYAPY
# Target: BmLARK (Bombyx mori) (UniProt Q5I7M6)
# Experiment: EMSA
# Details: pyridostatin (PDS) 1-3 uM, added before or after binding; 10 mM Tris pH 7.5, 50 mM KCl, 1 mM DTT, room temperature, 20 min; 2 uM probe, 2 ug BmLARK or 1 ug BG4 in 20 ul; 4% PAGE on ice; recombinant protein; protein details: GST (pGEX-6P-1); label: 5' 6-FAM; folded or branched DNA
sequence,measurement,value
GTCGGGAAGGGGTTGGGGGGGGGTAGGTT [FAM-BmACBP G4 (folded with K+)],binding result,binds more weakly

# Construct, isoform or probe ends are uncertain for at least one entry. A weaker result is weaker than the reference pair of the same experiment.
